The results in this text go back to article PMC3050690.

The target in the series is T1, MalE-GadX (GadX fused to maltose-binding protein) (Escherichia coli K-12 (genomic library)) (UniProt P37639).
T1 sequence (looked up): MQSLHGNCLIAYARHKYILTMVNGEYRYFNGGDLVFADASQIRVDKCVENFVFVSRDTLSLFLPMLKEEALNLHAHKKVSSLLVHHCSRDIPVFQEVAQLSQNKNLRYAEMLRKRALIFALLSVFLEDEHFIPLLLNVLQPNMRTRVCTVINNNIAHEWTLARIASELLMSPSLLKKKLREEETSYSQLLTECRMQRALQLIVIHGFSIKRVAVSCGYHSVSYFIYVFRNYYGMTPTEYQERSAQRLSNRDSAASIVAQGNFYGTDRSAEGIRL
Nature of the series: EMSA. As to conditions: 2, 4, 6 pmol protein in 10 ul, 6 fmol DNA, dose-dependent shift; EMSA: binding buffer of Tramonti et al. (not given), room temperature 20 min, 5% native PAGE 0.5X TBE; recombinant protein; residues 1-274; protein details: N-terminal MBP (MalE); label: 32P (5' end); probe letters rebuilt from the primers and the genome. On the technique in general: In EMSA bound probe runs differently from free probe, usually more slowly.

Where a protein sequence is shown, tags need not be part of it.

For the sequence “GGCTCTAGAAAACGGTGCCATCATACTTTGCAAACGTACCACTTTTTCGGCTAACTGCGCTTCATACTGTTCTGTTGGAAGGTGTTCGGGGGTCATGATGTATCCTGAAAAATTAAAGTACGCGGCGATTGTAGGGATTGCTCATCAGATGTCCAGATCTTGATGAATTCCTATTTGTGAGCTACGTCTGGACAGTAACTTGTTACAACCTGTAGCATCCACTTGCCGGTCCTGTGAGTTAATAGGGAATCCAGTGCGAATCTGGAGCTGACGCGCAGCGGTAAGGAAAGGTGCGATGATTGCGTTATGCGGACACTGCCATTCGGTGGGAAGTCATCATCTCTTAGTATCTTAGATACCCCTCCAAGCCCGAAGACCTGCCGGCCAACGTCGCATCTGGTTCTCATCATCGCGTAATATTGATGAAACCTGCGGCATCCTTCTTCTATTGTGGATGCTTTACAATGATAAGCTTGCC (double strand) [PbtuB 461-bp promoter fragment]”, the binding result is “binds”.
